From patent US20180318834A1, “INTEGRATION OF ELECTROCHECMICAL PH MODULATION WITH LAB ON A CHIP TECHNOLOGIES” (Robert Bosch GmbH, priority 2015, published 2018) come the findings set out here.

The nature of the data set: Electrochemical modulation of pH at ITO working electrode, monitored by GFP fluorescence intensity. It is filed as physicochemical.

For the molecule `Cc1cc(O)ccc1O` [2-methyl-1,4-dihydroquinone], the “solution pH after current-driven oxidation” value (50 microamps for 30 second, diluted phosphate buffer pH 7.4 with 0.1M Na2SO4, pH from GFP fluorescence) was found to be 5.5. Besides, the “time for pH to recover to neutral value after current was turned off” value (diluted phosphate buffer pH 7.4 with 0.1M Na2SO4) is not above 50 seconds.
